This assay addresses Brca1 (mouse (endogenous in testes)) (UniProt P48754). As to the kind of experiment: proximity ligation; in situ PLA (Duolink) on Setx+/+ pachytene spermatocyte spreads, endogenous proteins; rabbit anti-mouse Brca1, sheep anti-senataxin (Ab-1), goat anti-ATR; SCP3 counterstain.

Protein sequences, listed by entry. Tags and fused reporters are not part of them.
UniProt P48754: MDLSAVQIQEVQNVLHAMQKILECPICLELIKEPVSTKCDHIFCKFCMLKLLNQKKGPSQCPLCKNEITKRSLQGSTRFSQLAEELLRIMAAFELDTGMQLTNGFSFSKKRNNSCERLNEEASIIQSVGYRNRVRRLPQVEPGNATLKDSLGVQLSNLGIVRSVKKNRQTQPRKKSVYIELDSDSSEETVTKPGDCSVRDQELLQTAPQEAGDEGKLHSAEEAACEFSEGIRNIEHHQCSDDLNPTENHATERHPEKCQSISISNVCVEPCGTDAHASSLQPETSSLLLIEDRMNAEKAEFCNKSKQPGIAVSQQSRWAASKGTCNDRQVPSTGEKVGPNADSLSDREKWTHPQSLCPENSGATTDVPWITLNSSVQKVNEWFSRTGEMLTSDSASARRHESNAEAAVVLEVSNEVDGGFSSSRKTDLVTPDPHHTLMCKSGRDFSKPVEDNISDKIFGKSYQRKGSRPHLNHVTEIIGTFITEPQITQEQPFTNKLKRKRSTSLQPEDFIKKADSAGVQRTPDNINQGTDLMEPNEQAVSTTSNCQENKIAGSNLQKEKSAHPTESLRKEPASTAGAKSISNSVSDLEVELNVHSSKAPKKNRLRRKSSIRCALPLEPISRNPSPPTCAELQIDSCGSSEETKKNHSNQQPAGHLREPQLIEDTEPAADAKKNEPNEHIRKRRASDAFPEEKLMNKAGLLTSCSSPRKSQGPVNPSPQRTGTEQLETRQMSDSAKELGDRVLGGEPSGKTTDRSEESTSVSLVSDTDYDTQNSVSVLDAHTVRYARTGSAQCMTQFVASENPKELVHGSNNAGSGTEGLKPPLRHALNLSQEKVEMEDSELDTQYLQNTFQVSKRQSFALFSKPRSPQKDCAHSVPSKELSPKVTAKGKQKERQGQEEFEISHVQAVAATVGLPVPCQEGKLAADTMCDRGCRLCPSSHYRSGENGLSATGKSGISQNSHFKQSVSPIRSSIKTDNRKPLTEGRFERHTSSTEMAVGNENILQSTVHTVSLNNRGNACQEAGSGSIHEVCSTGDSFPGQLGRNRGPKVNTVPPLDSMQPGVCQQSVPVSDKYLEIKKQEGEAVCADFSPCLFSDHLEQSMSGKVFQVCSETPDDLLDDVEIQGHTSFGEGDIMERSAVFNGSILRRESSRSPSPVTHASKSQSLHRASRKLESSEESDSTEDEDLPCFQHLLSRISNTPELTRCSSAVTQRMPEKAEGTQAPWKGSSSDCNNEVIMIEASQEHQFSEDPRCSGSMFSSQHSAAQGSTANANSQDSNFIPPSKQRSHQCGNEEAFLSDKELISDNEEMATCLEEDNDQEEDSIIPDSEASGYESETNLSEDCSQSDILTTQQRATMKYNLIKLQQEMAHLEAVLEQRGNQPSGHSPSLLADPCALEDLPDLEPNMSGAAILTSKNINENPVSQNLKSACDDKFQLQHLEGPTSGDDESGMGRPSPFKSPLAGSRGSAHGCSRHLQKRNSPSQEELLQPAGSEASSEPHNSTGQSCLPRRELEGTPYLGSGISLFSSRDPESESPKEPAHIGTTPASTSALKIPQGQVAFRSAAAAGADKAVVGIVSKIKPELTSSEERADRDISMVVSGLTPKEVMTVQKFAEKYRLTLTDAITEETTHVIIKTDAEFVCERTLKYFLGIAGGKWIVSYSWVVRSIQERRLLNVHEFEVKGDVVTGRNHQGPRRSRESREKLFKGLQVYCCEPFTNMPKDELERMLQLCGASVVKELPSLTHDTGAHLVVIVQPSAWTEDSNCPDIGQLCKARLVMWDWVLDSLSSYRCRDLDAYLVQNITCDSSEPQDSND
UniProt Q9JKK8: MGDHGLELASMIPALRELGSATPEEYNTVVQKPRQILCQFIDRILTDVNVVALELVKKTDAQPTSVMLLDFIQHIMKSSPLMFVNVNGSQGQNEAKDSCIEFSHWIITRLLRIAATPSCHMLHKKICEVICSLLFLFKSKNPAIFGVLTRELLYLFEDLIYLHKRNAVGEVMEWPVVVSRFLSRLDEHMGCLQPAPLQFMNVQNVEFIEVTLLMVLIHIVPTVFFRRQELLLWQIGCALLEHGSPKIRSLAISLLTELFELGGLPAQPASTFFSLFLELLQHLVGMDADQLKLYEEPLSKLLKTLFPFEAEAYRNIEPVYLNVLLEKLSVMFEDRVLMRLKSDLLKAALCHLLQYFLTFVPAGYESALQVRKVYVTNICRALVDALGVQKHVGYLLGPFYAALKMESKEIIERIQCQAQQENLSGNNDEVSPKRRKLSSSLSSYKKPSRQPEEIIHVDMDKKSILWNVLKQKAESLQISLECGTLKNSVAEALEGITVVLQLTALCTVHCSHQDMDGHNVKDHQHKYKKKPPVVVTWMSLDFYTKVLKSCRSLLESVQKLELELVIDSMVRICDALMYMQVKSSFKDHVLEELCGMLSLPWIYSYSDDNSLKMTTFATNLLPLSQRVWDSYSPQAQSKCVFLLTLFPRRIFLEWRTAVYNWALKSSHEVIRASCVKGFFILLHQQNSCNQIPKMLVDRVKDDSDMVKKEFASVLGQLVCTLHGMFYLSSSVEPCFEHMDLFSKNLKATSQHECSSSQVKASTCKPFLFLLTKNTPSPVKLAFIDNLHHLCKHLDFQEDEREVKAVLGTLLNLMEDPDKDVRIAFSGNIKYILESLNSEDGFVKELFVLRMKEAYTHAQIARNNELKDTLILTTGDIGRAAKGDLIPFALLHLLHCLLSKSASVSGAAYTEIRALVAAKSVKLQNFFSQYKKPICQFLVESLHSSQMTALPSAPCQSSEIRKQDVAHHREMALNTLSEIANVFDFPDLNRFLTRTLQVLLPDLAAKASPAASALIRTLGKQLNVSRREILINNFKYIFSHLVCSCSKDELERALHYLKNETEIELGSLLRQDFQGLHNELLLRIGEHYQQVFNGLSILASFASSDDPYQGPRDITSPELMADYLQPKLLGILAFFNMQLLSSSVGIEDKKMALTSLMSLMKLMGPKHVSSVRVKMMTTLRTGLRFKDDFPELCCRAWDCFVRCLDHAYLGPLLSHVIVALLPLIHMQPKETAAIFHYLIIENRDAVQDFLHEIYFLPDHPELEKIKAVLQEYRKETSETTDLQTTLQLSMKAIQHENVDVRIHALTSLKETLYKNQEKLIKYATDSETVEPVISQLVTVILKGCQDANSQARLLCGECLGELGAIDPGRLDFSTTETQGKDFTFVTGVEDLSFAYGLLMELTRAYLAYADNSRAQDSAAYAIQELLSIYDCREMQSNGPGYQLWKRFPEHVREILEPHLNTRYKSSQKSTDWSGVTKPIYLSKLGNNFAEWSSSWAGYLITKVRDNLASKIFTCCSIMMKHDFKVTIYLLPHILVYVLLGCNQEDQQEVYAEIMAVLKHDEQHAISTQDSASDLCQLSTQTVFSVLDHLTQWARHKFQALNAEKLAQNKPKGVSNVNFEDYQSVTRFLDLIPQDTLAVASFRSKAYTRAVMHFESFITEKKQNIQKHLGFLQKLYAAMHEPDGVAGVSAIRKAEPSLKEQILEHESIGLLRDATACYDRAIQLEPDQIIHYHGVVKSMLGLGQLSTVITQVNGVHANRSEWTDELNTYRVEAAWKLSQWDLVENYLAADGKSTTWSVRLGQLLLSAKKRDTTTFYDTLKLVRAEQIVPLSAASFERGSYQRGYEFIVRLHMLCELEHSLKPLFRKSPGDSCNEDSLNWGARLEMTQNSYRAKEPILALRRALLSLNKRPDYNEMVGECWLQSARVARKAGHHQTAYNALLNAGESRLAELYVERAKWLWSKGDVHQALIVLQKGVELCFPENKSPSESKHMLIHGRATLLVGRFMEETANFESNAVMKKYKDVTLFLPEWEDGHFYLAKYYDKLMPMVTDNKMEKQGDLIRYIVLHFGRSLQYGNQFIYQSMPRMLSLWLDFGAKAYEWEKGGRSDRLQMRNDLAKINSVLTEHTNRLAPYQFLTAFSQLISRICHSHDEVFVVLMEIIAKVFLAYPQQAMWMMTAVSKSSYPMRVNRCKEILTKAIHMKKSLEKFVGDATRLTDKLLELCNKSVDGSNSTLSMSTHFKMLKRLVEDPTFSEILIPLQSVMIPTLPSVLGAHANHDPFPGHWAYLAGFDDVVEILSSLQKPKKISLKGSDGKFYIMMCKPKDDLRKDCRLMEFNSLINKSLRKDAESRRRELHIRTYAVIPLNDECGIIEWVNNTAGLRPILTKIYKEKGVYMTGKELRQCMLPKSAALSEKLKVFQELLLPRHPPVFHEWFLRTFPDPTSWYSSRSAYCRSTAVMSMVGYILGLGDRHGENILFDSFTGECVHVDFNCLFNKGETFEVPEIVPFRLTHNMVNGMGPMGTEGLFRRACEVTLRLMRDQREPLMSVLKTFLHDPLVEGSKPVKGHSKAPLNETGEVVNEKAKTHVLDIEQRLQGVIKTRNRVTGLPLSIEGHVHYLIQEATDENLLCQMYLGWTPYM

No constants are given. Whether binding was seen depends on the method and setting. In cells and extracts the contact can be indirect. Some entries that bind do so weakly or less than the wild type.

With “ataxia-telangiectasia and Rad3 related (ATR) (from UniProt Q9JKK8 1-2635)”, the binding result is given as “binds”.

The record behind these values is article PMC3623790.
